PubChem BioAssay AID1224830 | NIAID – 2016
The whole screen tested about 18,000 reagents; below is a part drawn at random. Of all reagents, about 2,900 (16%) got an active call. 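Calls are made per well; low scores hint the gene aids the LPS response, high scores that it dampens it.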 Repeated entries: four replicate wells of each siRNA pool. No sequences are given here.

Screen: 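Host factors that control LPS-induced TNF expression in human macrophages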 (primary screen)
Cell system: human THP-1 monocytic leukaemia cells, TNF dual-luciferase reporter clone, PMA-differentiated to macrophage-like cells
Reagents: siRNA pool against human genes, 50 nM
Time to read-out: LPS for 4 h, given about 3 days after siRNA transfection
Treatment: bacterial LPS (TLR4 ligand), 10 ng/ml
Measured: 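Ratio of firefly to renilla light, scaled to the plate median and expressed as a robust z-score per replicate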
Direction: TNF reporter robust z-score: higher = stronger TNF reporter response to LPS
Active means: 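a well is active when its z-score exceeds 2.8 or falls below -1.5; control wells carry no call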

gene | PubChem SID | TNF reporter robust z-score | outcome
PIGY (phosphatidylinositol glycan anchor biosynthesis class Y) | SID315460629 | 0.46 | inactive
PIGY (phosphatidylinositol glycan anchor biosynthesis class Y) | SID315460629 | 0 | inactive
PIGY (phosphatidylinositol glycan anchor biosynthesis class Y) | SID315460629 | 0.23 | inactive
PIGY (phosphatidylinositol glycan anchor biosynthesis class Y) | SID315460629 | -0.22 | inactive
FABP9 (fatty acid binding protein 9) | SID315465112 | -0.95 | inactive
FABP9 (fatty acid binding protein 9) | SID315465112 | 0.36 | inactive
FABP9 (fatty acid binding protein 9) | SID315465112 | -0.43 | inactive
FABP9 (fatty acid binding protein 9) | SID315465112 | 0.65 | inactive
ANXA9 (annexin A9) | SID315452547 | 2.83 | active
ANXA9 (annexin A9) | SID315452547 | 3.44 | active
ANXA9 (annexin A9) | SID315452547 | 5.21 | active
ANXA9 (annexin A9) | SID315452547 | 8.24 | active
KIAA0232 | SID315453557 | -1.09 | inactive
KIAA0232 | SID315453557 | -0.67 | inactive
KIAA0232 | SID315453557 | -0.91 | inactive
KIAA0232 | SID315453557 | -1.35 | inactive
CCR6 (C-C motif chemokine receptor 6) | SID315447985 | -0.57 | inactive
CCR6 (C-C motif chemokine receptor 6) | SID315447985 | -0.26 | inactive
CCR6 (C-C motif chemokine receptor 6) | SID315447985 | -0.27 | inactive
CCR6 (C-C motif chemokine receptor 6) | SID315447985 | 0.46 | inactive
PSMD13 (proteasome 26S subunit, non-ATPase 13) | SID315450918 | -0.25 | inactive
PSMD13 (proteasome 26S subunit, non-ATPase 13) | SID315450918 | 0.64 | inactive
PSMD13 (proteasome 26S subunit, non-ATPase 13) | SID315450918 | -1.1 | inactive
PSMD13 (proteasome 26S subunit, non-ATPase 13) | SID315450918 | -0.03 | inactive
MGAT4A | SID315454755 | -0.62 | inactive
MGAT4A | SID315454755 | 0.13 | inactive
MGAT4A | SID315454755 | -0.61 | inactive
MGAT4A | SID315454755 | -0.14 | inactive
CASD1 (CAS1 domain sialic acid O acetyltransferase 1) | SID315459043 | -0.88 | inactive
CASD1 (CAS1 domain sialic acid O acetyltransferase 1) | SID315459043 | -0.54 | inactive
CASD1 (CAS1 domain sialic acid O acetyltransferase 1) | SID315459043 | -0.49 | inactive
CASD1 (CAS1 domain sialic acid O acetyltransferase 1) | SID315459043 | -0.26 | inactive
PSD2 (pleckstrin and Sec7 domain containing 2) | SID315460264 | 0.77 | inactive
PSD2 (pleckstrin and Sec7 domain containing 2) | SID315460264 | 1.09 | inactive
PSD2 (pleckstrin and Sec7 domain containing 2) | SID315460264 | 0.12 | inactive
PSD2 (pleckstrin and Sec7 domain containing 2) | SID315460264 | 0.39 | inactive
GPR171 (G protein-coupled receptor 171) | SID315456210 | -0.32 | inactive
GPR171 (G protein-coupled receptor 171) | SID315456210 | 0 | inactive
GPR171 (G protein-coupled receptor 171) | SID315456210 | -0.02 | inactive
GPR171 (G protein-coupled receptor 171) | SID315456210 | -0.5 | inactive
BRME1 (break repair meiotic recombinase recruitment factor 1) | SID315459245 | -2.25 | active
BRME1 (break repair meiotic recombinase recruitment factor 1) | SID315459245 | -1.21 | inactive
BRME1 (break repair meiotic recombinase recruitment factor 1) | SID315459245 | -1.08 | inactive
BRME1 (break repair meiotic recombinase recruitment factor 1) | SID315459245 | -0.4 | inactive
PPP1R14B (protein phosphatase 1 regulatory inhibitor subunit 14B) | SID315455784 | -0.33 | inactive
PPP1R14B (protein phosphatase 1 regulatory inhibitor subunit 14B) | SID315455784 | 0.55 | inactive
PPP1R14B (protein phosphatase 1 regulatory inhibitor subunit 14B) | SID315455784 | 0.47 | inactive
PPP1R14B (protein phosphatase 1 regulatory inhibitor subunit 14B) | SID315455784 | 0.76 | inactive
NRP1 (neuropilin 1) | SID315452856 | -1.23 | inactive
NRP1 (neuropilin 1) | SID315452856 | -1.21 | inactive
NRP1 (neuropilin 1) | SID315452856 | -0.78 | inactive
NRP1 (neuropilin 1) | SID315452856 | -0.66 | inactive
DZANK1 (double zinc ribbon and ankyrin repeat domains 1) | SID315457476 | -0.93 | inactive
DZANK1 (double zinc ribbon and ankyrin repeat domains 1) | SID315457476 | -0.89 | inactive
DZANK1 (double zinc ribbon and ankyrin repeat domains 1) | SID315457476 | 0.01 | inactive
DZANK1 (double zinc ribbon and ankyrin repeat domains 1) | SID315457476 | -0.17 | inactive
PARP10 (poly(ADP-ribose) polymerase family member 10) | SID315460539 | -1.4 | inactive
PARP10 (poly(ADP-ribose) polymerase family member 10) | SID315460539 | -1.28 | inactive
PARP10 (poly(ADP-ribose) polymerase family member 10) | SID315460539 | -1.27 | inactive
PARP10 (poly(ADP-ribose) polymerase family member 10) | SID315460539 | -1.02 | inactive
FOXN2 (forkhead box N2) | SID315449357 | -1.29 | inactive
FOXN2 (forkhead box N2) | SID315449357 | -0.55 | inactive
FOXN2 (forkhead box N2) | SID315449357 | -0.69 | inactive
FOXN2 (forkhead box N2) | SID315449357 | -0.87 | inactive
C11orf87 (chromosome 11 open reading frame 87) | SID315464727 | 0.59 | inactive
C11orf87 (chromosome 11 open reading frame 87) | SID315464727 | 0.7 | inactive
C11orf87 (chromosome 11 open reading frame 87) | SID315464727 | 0.25 | inactive
C11orf87 (chromosome 11 open reading frame 87) | SID315464727 | 0.93 | inactive

Next part, starting with the last 3 of the part before.
gene | PubChem SID | TNF reporter robust z-score | outcome
C11orf87 (chromosome 11 open reading frame 87) | SID315464727 | 0.7 | inactive
C11orf87 (chromosome 11 open reading frame 87) | SID315464727 | 0.25 | inactive
C11orf87 (chromosome 11 open reading frame 87) | SID315464727 | 0.93 | inactive
RPL18 (ribosomal protein L18) | SID315451183 | -0.19 | inactive
RPL18 (ribosomal protein L18) | SID315451183 | -0.26 | inactive
RPL18 (ribosomal protein L18) | SID315451183 | -0.52 | inactive
RPL18 (ribosomal protein L18) | SID315451183 | -0.22 | inactive
KCNIP3 (potassium voltage-gated channel interacting protein 3) | SID315456292 | 1.39 | inactive
KCNIP3 (potassium voltage-gated channel interacting protein 3) | SID315456292 | -0.78 | inactive
KCNIP3 (potassium voltage-gated channel interacting protein 3) | SID315456292 | 2.02 | inactive
KCNIP3 (potassium voltage-gated channel interacting protein 3) | SID315456292 | 2.36 | inactive
PIN4 (peptidylprolyl cis/trans isomerase, NIMA-interacting 4) | SID315450598 | -0.21 | inactive
PIN4 (peptidylprolyl cis/trans isomerase, NIMA-interacting 4) | SID315450598 | -0.06 | inactive
PIN4 (peptidylprolyl cis/trans isomerase, NIMA-interacting 4) | SID315450598 | -0.44 | inactive
PIN4 (peptidylprolyl cis/trans isomerase, NIMA-interacting 4) | SID315450598 | -0.17 | inactive
ACSBG1 (acyl-CoA synthetase bubblegum family member 1) | SID315455071 | 0.71 | inactive
ACSBG1 (acyl-CoA synthetase bubblegum family member 1) | SID315455071 | 1.96 | inactive
ACSBG1 (acyl-CoA synthetase bubblegum family member 1) | SID315455071 | 1.04 | inactive
ACSBG1 (acyl-CoA synthetase bubblegum family member 1) | SID315455071 | 1.06 | inactive
P2RX7 (purinergic receptor P2X 7) | SID315450394 | 0.69 | inactive
P2RX7 (purinergic receptor P2X 7) | SID315450394 | -0.13 | inactive
P2RX7 (purinergic receptor P2X 7) | SID315450394 | 0.39 | inactive
P2RX7 (purinergic receptor P2X 7) | SID315450394 | -1.68 | active
SCARA5 (scavenger receptor class A member 5) | SID315463898 | -1.46 | inactive
SCARA5 (scavenger receptor class A member 5) | SID315463898 | -0.02 | inactive
SCARA5 (scavenger receptor class A member 5) | SID315463898 | -0.68 | inactive
SCARA5 (scavenger receptor class A member 5) | SID315463898 | -0.91 | inactive
SNF8 (SNF8 subunit of ESCRT-II) | SID315454729 | 0.06 | inactive
SNF8 (SNF8 subunit of ESCRT-II) | SID315454729 | 0.29 | inactive
SNF8 (SNF8 subunit of ESCRT-II) | SID315454729 | -0.3 | inactive
SNF8 (SNF8 subunit of ESCRT-II) | SID315454729 | 1.35 | inactive
OR56B4 (olfactory receptor family 56 subfamily B member 4) | SID315462957 | -0.17 | inactive
OR56B4 (olfactory receptor family 56 subfamily B member 4) | SID315462957 | -0.31 | inactive
OR56B4 (olfactory receptor family 56 subfamily B member 4) | SID315462957 | -0.55 | inactive
OR56B4 (olfactory receptor family 56 subfamily B member 4) | SID315462957 | -0.21 | inactive
LRRC56 (leucine rich repeat containing 56) | SID315461308 | 0.64 | inactive
LRRC56 (leucine rich repeat containing 56) | SID315461308 | 1.97 | inactive
LRRC56 (leucine rich repeat containing 56) | SID315461308 | 1.12 | inactive
LRRC56 (leucine rich repeat containing 56) | SID315461308 | 3.75 | active
OTOA (otoancorin) | SID315462268 | -0.32 | inactive
OTOA (otoancorin) | SID315462268 | -0.15 | inactive
OTOA (otoancorin) | SID315462268 | 1.46 | inactive
OTOA (otoancorin) | SID315462268 | 1.54 | inactive
TAAR9 (trace amine associated receptor 9) | SID315461981 | -1.29 | inactive
TAAR9 (trace amine associated receptor 9) | SID315461981 | -0.19 | inactive
TAAR9 (trace amine associated receptor 9) | SID315461981 | -0.79 | inactive
TAAR9 (trace amine associated receptor 9) | SID315461981 | -0.37 | inactive
